Assay results published in PMC2749851.
Results are given in words; binding and its absence hold for the method and conditions named.

Target: GST-E1A-C* (adenovirus) (UniProt P03254)
Test: pull-down; GST fusion proteins charged on glutathione-agarose beads, incubated with purified H6-CtBP2 or H6-RR-CtBP2 (~0.1 μg) in 200 μl of 25 mM Tris-HCl pH 7.5, 0.25 M NaCl, 0.5% Triton X-100, 0.5 mM DTT for 1 h at 4°C; Western blot with the CtBP2 antibody; both purified

Question: H6-CtBP2 (from UniProt P56545 1-445) was tested. Which binding did it give?
Answer: no binding (tested: ~0.1 μg in 200 μl)
